Measurements taken from PubChem BioAssay AID2685 (National Center for Advancing Translational Sciences (NCATS), 2010).
Among all 320,000 compounds or so, about 2,100 (0.66%) were called active. The inconclusive results got no clear call from the source; some entries with a clear call stand among them for comparison. Calls come from the whole dose curve; as a rule, active = well fitted inhibition curve with a large enough effect in the signal ratio, with a control signal flat (not every such curve was filed as active); inconclusive = small, poorly fitted or top-dose-only effect, or effect the other way, or a change in a side signal; inactive = flat fitted curve, though single readings scatter; the % refers to the signal ratio. A potency beside an inconclusive call is a rough fit, not a confirmed value.

experiment: qHTS Assay for Lipid Storage Modulators in Drosophila S3 Cells; settings: BODIPY lipid droplet fluorescence, 18-24 h, cells fed with added oleic acid; lipid storage change, negative = inhibition: at 46.1 µM (top of the series) unless noted
Method in brief: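 Drosophila S3 cells loaded with oleic acid (400 uM, as added) and compounds at several concentrations; lipid droplets imaged by 488-nm laser-scanning cytometry, 500–530 nm intensity and object ratio to cell channel. Percent activity normalized to 20 uM Triacsin C.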
% is set by controls: 0 for no effect and ±100 for the full control effect; potency is the fitted concentration of half-maximal effect.

Structure (SMILES) | lipid storage change, negative = inhibition | Potency | outcome
CCc1cc(=O)oc2c(C)c(OCC(=O)NCC3CCC(C(=O)O)CC3)ccc12 (stereo not given) | inconclusive: -19.4% |  | 
COc1ccc(Nc2nccc3c2nnn3C)cc1 | inconclusive: 11.9% |  | 
COCCNC(=O)CSCc1cc(C)cc(C)c1 |  | inconclusive: 0.291 µM [falling, partial curve, poor fit] | 
Cc1ccc(C(=O)OCC(=O)NC(=O)c2ccccc2)o1 | inconclusive: 3.29% |  | 
CCN(CC)CCCN1C(=O)C(O)=C(C(=O)c2ccco2)C1c1ccc(OC(C)C)cc1 (stereo not given) | inconclusive: -30.6% |  | 
CCOC(=O)CSc1n[nH]c(-c2cccnc2)n1 | inconclusive: 38.7% |  | 
CCOC(Cn1c(CCCO)nc2ccccc21)OCC | inconclusive: 44.5% |  | 
FC(F)(F)c1cnc(Sc2nc3nccc(-c4ccc(Cl)cc4)n3n2)c(Cl)c1 | inconclusive: 0.725% |  | 
COCCCn1c(CCC(=O)O)ccc1-c1cccs1 |  | inconclusive: 0.0651 µM [falling, full curve, poor fit] | 
CCOc1ccc(C)cc1S(=O)(=O)NC1CCCCC1 |  | inconclusive: 8.2 µM [activator, partial curve] | 
Cc1onc(-c2ccccc2)c1C(=O)NCc1cccnc1 | inconclusive: 17.9% |  | 
CN(C)CCCNCC(=O)Nc1ccccc1N1CCOCC1 | inconclusive: -59.3% |  | 
Cc1nc2c(C)cccn2c1C(=O)c1ccccc1 | inconclusive: -6.42% |  | 
CC(C)Oc1ccc(CNCCC2(C(C)C)CCOC(C)(C)C2)cc1 (stereo not given) | inconclusive: -1.46% |  | 
COc1ccc(C2CC(c3ccc(Br)cc3)=NN2C(=O)CSC2=NN3CCCC(=O)N=C3S2)cc1 (stereo not given) | inconclusive: -24.3% |  | 
Cc1ccc(NC(=O)Cn2c(O)c(N=NC(=O)c3cc([N+](=O)[O-])ccc3O)c3ccccc32)cc1 | inconclusive: -20.1% |  | 
CC(C)CC1Nc2ccc(C(=O)NCc3ccc4c(c3)OCO4)cc2NC1=O (stereo not given) | inconclusive: 244% |  | 
COc1cccc(NC(=O)CN(C)C(=O)c2ccc3ccccc3c2)c1 |  | inconclusive: 9.2 µM [activator, partial curve] | 
Cc1ccc(NC(=O)CCC(=O)NNC(=O)c2cccs2)cc1C | inconclusive: 12.6% |  | 
COCCCNc1nc(N)c([N+](=O)[O-])c(Nc2ccccc2OC)n1 | inconclusive: -3.73% |  | 
Cc1cc(C)cc(NC(=O)N2CCCN(c3c(Cl)cncc3Cl)CC2)c1 |  | inconclusive: 29.1 µM [cytotoxic, single point] | 
COC(=O)c1ccc(NC(=O)C2CCCN2S(=O)(=O)c2ccc(C)cc2)cc1 (stereo not given) |  | inconclusive: 29.1 µM [falling, single point] | 
Cc1cccc([N+](=O)[O-])c1NC(=O)COC(=O)c1nc2nccc(C)n2n1 | inconclusive: 14% |  | 
COc1ccc(-c2cc(C(=O)N3CCN(c4ccc(F)cc4)CC3)no2)cc1OC |  | inconclusive: 11.6 µM [activator, single point] | 
CCOP(=O)(OCC)/C(C#N)=C/c1ccc([N+](=O)[O-])cc1 | inconclusive: -6.4% |  | 

Structure (SMILES) | lipid storage change, negative = inhibition | Potency | outcome
O=S(=O)(c1ccccc1F)N1CCC(c2nc3ccccc3[nH]2)CC1 |  | inconclusive: 0.326 µM [falling, full curve] | 
CCOC(=O)c1c(NC(=O)c2ccc(S(=O)(=O)N(C)CC3CCCO3)cc2)sc2c1CC(C)(C)NC2(C)C (stereo not given) | inconclusive: -19.6% |  | 
Cc1sc2ccc3sccc3c2[n+]1C |  | inconclusive: 3.26 µM [falling, full curve, poor fit] | 
Cc1c(C(=O)N2CCN(S(=O)(=O)c3cc(F)ccc3F)CC2)oc2ccccc12 | inactive: 16.3% |  | 
CCc1ccccc1OCC(=O)Nc1cc(S(=O)(=O)N2CCOCC2)ccc1N1CCCCC1 |  | inconclusive: 6.51 µM [falling, single point] | 
CN(CC(=O)Nc1cccc(F)c1)C(=O)c1ccccc1Cc1ccccc1 |  | inconclusive: 7.31 µM [activator, partial curve] | 
O=C(NCc1ccccc1)C(c1ccco1)N(C(=O)c1csnn1)c1ccccc1 (stereo not given) | inconclusive: -147% |  | 
COc1ccc(OC)c(NC(=O)CCCc2ccccc2)c1 |  |  | inactive [at 46.1 µM]
CCN(CC(=O)Nc1c(F)cccc1F)C(=O)c1ccc(NC(=O)CC2SC(N3CCCC3)=NC2=O)cc1 (stereo not given) | inconclusive: -37.7% |  | 
COc1ccc(NC(=O)Nc2nnc(Cc3ccc(OC)c(OC)c3)s2)cc1 | inconclusive: -59.4% |  | 
Cc1ccc(C(=O)Nc2c(N)nc(SCC(=O)NCC3CCCO3)[nH]c2=O)cc1 (stereo not given) | inconclusive: -4.67% |  | 
CCCn1nc(C(=O)Nc2ccc(N3CCOCC3)cc2)c2ccccc2c1=O | inconclusive: -13.3% |  | 
Cc1ccc(SCCC(=O)OCC(=O)Nc2ccc(C(N)=O)cc2)cc1 | inconclusive: 10.3% |  | 
CC(C)OC(=O)Nc1ccc2c(c1)N(C(=O)N1CCN(C)CC1)c1ccccc1CC2 | inconclusive: 38.1% |  | 
CC(=O)N1c2c(cc(Br)cc2S(=O)(=O)N2CCN(c3ccccc3F)CC2)CC1C (stereo not given) | inconclusive: -17.6% |  | 
CCCN(C1CCS(=O)(=O)C1)S(=O)(=O)c1ccc2ccccc2c1 (stereo not given) | inconclusive: 10.4% |  | 
CCOC(=O)c1cnc2c(-c3ccc(Cl)cc3)cnn2c1C | inconclusive: -20.1% |  | 
CCOC(=O)C1(C(F)(F)F)N=C(N(C)C)OC(N(C)C)=N1 | inconclusive: -2.17% |  | 
CCCCS(=O)(=O)Nc1ccc(N2CCOCC2)c(S(=O)(=O)N2CCOCC2)c1 | inconclusive: 5.75% |  | 
Cn1c(CCN2CCN(c3ccccn3)CC2)nc2cc(NS(=O)(=O)c3ccccc3)ccc21 | inactive: 8.02% |  | 
CCn1c(SCC(=O)Nc2cccc(NC(C)=O)c2)nc2c([nH]c3ccccc32)c1=O | inconclusive: -0.387% |  | 
COCc1cc(C)n(CC(=O)OC)c(=O)c1C#N | inconclusive: 19.9% |  | 
O=C(Nc1nnc(S(=O)(=O)N2CCCC2)s1)c1ccccc1F |  | inconclusive: 16.4 µM [falling, single point] | 
O=c1[nH]c(CSc2ncc(-c3ccc(F)cc3)n2Cc2ccco2)nc2ccccc12 | inconclusive: 63.9% |  | 
O=c1cc(CO)occ1OCc1cccc(F)c1 | inconclusive: -24.4% |  | 

Some of these compounds in order of count of non-hydrogen atoms, high to low.
Structure (SMILES) | lipid storage change, negative = inhibition | Potency | outcome
O=C(NCc1ccccc1)C(c1ccco1)N(C(=O)c1csnn1)c1ccccc1 (stereo not given) | inconclusive: -147% |  | 
CCCn1nc(C(=O)Nc2ccc(N3CCOCC3)cc2)c2ccccc2c1=O | inconclusive: -13.3% |  | 
CCOC(=O)c1cnc2c(-c3ccc(Cl)cc3)cnn2c1C | inconclusive: -20.1% |  | 
